In the supplement of paper PMC10849652:
The list shows a part of the results.

Amino acid sequences for entries named in this document (tags omitted). A change or cut given only in a name is not applied to a line headed by its entry.
UniProt Q13033: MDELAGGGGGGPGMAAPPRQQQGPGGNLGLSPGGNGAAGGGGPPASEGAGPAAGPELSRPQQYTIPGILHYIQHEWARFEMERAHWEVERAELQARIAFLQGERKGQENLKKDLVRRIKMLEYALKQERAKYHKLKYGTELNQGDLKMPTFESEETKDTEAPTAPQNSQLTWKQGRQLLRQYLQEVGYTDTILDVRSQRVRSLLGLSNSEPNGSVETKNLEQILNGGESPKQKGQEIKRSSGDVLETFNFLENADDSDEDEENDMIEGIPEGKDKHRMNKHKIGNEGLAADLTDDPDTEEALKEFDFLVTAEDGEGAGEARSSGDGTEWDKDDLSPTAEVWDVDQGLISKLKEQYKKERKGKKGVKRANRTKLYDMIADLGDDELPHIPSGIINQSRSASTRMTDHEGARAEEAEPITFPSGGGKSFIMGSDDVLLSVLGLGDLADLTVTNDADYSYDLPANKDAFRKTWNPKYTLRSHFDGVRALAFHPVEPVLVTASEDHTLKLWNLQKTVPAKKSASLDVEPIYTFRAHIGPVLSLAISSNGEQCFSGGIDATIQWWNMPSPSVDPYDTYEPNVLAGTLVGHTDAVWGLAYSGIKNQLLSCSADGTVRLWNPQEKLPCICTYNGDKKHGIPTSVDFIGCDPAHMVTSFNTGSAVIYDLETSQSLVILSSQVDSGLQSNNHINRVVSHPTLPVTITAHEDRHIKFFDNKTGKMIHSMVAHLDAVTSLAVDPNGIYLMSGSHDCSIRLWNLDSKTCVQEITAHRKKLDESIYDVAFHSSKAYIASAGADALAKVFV
UniProt Q15022: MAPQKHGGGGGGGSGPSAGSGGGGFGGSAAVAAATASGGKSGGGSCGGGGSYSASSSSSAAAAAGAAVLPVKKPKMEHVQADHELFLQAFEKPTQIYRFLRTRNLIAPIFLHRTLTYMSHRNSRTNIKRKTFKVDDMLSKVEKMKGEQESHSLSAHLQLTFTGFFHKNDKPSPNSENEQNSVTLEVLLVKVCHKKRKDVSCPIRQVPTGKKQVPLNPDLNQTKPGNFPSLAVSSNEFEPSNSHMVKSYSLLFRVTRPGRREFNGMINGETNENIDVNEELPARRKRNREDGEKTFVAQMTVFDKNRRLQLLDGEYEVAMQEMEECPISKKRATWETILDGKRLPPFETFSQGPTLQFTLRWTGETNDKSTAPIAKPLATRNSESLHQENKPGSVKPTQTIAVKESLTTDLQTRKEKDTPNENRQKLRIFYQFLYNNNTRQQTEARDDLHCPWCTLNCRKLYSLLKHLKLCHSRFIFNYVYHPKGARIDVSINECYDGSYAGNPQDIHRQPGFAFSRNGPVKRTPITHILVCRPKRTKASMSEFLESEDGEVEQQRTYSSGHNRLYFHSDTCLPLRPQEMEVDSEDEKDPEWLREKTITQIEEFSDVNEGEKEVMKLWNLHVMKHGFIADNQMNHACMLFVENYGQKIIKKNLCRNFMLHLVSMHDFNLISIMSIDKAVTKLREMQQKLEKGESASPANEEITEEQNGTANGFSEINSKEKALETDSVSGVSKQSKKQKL
UniProt Q15544, whole entry, looked up: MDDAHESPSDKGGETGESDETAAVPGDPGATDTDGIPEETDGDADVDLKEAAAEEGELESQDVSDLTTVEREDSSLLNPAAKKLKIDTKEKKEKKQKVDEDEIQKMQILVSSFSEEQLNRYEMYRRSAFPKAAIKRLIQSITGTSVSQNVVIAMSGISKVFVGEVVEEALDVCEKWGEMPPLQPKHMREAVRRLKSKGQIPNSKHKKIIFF
UniProt O75486: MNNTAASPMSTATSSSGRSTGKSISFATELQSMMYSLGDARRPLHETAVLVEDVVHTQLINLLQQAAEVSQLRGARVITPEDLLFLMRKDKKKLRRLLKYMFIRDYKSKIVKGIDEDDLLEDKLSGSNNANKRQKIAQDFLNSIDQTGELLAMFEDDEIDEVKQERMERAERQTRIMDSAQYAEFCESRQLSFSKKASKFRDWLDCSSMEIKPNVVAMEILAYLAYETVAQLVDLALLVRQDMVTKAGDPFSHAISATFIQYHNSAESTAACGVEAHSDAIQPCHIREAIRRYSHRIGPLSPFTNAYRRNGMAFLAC
UniProt Q8N2I9: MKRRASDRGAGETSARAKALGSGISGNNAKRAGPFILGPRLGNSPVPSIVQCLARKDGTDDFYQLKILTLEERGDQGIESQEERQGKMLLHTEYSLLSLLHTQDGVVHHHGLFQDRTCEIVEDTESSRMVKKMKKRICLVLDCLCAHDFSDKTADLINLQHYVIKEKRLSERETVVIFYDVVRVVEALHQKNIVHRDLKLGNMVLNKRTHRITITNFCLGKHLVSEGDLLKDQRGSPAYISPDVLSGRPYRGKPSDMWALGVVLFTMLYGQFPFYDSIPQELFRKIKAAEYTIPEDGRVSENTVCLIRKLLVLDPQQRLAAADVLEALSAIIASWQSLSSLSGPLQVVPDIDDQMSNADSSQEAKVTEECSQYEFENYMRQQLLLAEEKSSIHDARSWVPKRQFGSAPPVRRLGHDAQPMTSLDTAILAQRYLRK
UniProt P08842: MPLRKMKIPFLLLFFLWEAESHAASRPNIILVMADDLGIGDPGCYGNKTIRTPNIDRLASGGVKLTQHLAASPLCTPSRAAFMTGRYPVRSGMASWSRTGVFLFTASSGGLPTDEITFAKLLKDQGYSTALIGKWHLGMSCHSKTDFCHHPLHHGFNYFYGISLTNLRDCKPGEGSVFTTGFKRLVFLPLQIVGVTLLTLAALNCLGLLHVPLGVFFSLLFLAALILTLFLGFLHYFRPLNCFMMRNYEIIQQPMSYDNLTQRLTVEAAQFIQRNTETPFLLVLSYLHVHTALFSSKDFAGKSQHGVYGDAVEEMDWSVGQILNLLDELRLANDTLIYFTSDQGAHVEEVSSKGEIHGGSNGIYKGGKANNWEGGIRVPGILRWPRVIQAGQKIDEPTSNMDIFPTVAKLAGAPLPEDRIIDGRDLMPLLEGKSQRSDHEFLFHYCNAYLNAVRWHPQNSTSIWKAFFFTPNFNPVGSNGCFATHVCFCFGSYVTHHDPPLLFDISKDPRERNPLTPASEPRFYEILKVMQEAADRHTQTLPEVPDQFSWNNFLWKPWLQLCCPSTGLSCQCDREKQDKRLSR
UniProt O94864: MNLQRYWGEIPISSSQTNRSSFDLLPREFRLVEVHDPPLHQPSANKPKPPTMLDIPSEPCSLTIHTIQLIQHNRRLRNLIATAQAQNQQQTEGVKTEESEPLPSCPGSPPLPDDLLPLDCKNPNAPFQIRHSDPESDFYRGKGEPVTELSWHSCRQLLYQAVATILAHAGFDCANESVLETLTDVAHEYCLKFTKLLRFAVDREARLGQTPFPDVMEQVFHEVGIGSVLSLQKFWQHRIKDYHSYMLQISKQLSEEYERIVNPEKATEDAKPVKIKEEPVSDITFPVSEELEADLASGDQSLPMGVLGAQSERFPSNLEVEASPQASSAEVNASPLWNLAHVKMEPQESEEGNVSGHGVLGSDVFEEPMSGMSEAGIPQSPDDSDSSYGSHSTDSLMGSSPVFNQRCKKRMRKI
UniProt Q9Y2K9: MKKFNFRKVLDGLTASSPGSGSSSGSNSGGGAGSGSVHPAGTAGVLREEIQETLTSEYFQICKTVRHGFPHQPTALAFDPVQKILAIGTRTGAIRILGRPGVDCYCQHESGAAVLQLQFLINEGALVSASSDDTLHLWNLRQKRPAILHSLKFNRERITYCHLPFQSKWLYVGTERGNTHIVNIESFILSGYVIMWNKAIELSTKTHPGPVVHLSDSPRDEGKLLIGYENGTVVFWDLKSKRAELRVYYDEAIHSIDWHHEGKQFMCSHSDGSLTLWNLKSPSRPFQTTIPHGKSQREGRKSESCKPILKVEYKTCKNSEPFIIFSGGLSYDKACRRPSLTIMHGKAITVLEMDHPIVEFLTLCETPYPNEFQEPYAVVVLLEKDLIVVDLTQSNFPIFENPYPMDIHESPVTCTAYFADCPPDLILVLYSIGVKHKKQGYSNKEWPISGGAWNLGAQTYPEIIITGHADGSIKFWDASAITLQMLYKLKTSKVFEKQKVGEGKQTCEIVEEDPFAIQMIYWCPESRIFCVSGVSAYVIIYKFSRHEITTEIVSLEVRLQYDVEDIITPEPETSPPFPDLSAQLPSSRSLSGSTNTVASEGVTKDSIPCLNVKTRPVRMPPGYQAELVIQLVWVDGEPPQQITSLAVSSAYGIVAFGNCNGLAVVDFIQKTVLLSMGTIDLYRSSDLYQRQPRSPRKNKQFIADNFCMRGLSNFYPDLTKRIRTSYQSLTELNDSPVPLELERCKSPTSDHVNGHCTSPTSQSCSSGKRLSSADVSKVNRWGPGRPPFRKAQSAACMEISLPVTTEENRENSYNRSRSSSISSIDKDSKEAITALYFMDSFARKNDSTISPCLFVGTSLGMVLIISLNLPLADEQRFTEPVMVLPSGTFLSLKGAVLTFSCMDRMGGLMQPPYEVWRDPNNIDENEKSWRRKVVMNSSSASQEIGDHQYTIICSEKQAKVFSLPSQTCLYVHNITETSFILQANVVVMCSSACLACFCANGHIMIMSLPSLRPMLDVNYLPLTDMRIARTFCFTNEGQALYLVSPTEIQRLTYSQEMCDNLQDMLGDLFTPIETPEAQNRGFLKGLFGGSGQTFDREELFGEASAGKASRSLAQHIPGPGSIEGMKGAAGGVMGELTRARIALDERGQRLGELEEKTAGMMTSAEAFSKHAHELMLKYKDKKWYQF
UniProt Q9H6P5: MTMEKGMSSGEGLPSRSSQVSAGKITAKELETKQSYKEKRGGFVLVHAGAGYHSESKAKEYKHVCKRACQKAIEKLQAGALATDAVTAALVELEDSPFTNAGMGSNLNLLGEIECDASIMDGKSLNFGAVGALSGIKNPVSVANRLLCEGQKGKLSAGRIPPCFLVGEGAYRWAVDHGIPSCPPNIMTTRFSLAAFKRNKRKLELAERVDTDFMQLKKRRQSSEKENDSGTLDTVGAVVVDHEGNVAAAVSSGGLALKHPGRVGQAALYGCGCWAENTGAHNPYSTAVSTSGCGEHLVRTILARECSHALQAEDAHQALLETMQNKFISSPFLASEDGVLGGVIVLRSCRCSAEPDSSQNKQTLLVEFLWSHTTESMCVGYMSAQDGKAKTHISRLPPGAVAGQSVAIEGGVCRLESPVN
UniProt Q6P1X5, whole entry, looked up: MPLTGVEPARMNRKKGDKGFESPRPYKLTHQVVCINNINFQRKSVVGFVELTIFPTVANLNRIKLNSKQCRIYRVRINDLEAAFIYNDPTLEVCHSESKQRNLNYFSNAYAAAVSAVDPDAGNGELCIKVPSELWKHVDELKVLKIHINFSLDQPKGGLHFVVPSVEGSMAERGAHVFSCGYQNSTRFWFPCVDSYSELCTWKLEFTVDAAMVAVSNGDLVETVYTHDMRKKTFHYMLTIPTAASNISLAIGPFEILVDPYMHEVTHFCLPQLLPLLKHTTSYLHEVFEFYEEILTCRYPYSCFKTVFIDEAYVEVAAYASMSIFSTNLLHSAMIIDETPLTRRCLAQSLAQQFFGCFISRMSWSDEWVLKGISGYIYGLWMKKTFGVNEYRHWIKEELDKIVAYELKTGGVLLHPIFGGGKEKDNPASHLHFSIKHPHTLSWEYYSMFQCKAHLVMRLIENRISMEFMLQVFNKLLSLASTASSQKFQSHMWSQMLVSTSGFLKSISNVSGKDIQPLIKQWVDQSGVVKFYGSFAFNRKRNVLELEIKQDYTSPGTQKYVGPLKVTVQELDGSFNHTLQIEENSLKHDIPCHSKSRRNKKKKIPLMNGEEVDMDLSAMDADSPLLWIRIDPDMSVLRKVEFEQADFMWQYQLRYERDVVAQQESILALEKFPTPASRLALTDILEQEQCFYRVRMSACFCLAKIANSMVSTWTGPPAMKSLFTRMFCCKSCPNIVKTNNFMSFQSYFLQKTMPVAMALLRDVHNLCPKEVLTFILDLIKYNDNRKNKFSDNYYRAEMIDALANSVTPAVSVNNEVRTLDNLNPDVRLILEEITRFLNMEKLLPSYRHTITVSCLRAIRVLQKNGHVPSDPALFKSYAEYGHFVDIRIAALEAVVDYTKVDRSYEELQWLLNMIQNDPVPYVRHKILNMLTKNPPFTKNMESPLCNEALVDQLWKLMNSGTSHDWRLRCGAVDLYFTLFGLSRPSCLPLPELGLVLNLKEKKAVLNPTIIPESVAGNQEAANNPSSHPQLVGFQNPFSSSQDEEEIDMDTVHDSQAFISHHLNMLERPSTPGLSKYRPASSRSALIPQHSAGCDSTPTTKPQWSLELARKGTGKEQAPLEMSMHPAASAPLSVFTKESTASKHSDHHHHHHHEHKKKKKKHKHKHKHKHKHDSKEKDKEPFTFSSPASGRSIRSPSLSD
UniProt P49888: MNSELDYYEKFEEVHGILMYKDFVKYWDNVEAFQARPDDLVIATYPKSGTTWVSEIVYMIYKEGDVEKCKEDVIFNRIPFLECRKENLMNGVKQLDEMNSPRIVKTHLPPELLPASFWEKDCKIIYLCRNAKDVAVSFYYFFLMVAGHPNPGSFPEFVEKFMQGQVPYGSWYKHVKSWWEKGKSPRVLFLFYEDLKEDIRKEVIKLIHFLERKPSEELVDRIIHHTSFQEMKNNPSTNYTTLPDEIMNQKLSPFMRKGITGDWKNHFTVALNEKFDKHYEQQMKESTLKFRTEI

Assays:
Assay in all cases: log2 fold change, soluble protein after heating vs DMSO (PISA); higher = thermal stabilisation; K562 cells, 10 uM, 30 min; active = over 0.2 and 3.5 SD of the protein, either way, in both replicates (recomputed)
[1] = compound: C#Cc1cccc(Nc2ncnc3cc(OCCOC)c(OCCOC)cc23)c1 [erlotinib]
How it was run: (§1)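 For each measurement, 10 μM compound was applied for 30 min to K562 cells at 2×10^6 cells/mL. Aliquots were heated for 3 min across 48°C-58°C, pooled, and extracted in PBS with 0.5% NP-40 at 4°C; the supernatant after 21,000xg for 90 min was soluble protein. This was quantified by TMTpro 16plex LC-MS/MS with channel sums equalised, and thermal stability was reported relative to control samples from duplicates, on a log2 fold-change scale.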

[2] = compound: C/C(=N\NC(=O)C1=CC(=CC=C1)S(=O)(=O)N2CCOCC2)/C3=C(C=CC(=C3)Cl)O
How it was run: as §1

[3] = compound: C1=CC(=C(C=C1Cl)C2=NC3=NC=CN=C3C(=N2)NC4=CC=NC=C4)F
How it was run: as §1

[4] = compound: C1=CC(=CC=C1C2=NC3=C(N2)C=C(C=C3)C(=O)N)OC4=CC=C(C=C4)Cl
How it was run: as §1

[5] = compound: C1=CC2=C(C=CC(=C2)/C=C\3/C(=O)NC(=NCC4=CC=CS4)S3)N=C1
How it was run: as §1

[6] = compound: C1=CC2=NC=CN=C2C=C1/C=C/3\C(=O)NC(=O)S3
How it was run: as §1

[7] = compound: C1=CC=C2C(=C1)C3=NNC4=CC=CC(=C43)C2=O
How it was run: as §1

[8] = compound: C1CCN(C1)C(=O)NC2=CC=CC(=C2)NC3=NC=C(C(=N3)NCCC4=CN=CN4)Br
How it was run: as §1

[9] = compound: C1CN(CCC1(CC2=CC=C(C=C2)Cl)N)C3=NC=NC4=C3C=CN4
How it was run: as §1

[10] = compound: C1=CC=C(C=C1)C2=NC(=C(N2)C3=CC=NC=C3)C4=CC(=C(C=C4)Cl)O
How it was run: as §1

Measured: log2 fold change

STRN3 isoform 2 (UniProt Q13033)
inactive: [1] -0.005 | [2] -0.163 | [3] -0.016 | [4] 0.065 | [5] 0.03 | [6] -0.016 | [7] -0.005 | [8] 0.036 | [9] 0.09

TAF5L (UniProt O75529)
inactive: [6] -0.063

TAF13 (UniProt Q15543)
inactive: [3] -0.372 | [10] -0.106 | [8] 0.077 | [9] 0.067

STYX (UniProt Q8WUJ0)
inactive: [1] -0.046 | [4] -0.027 | [10] -0.101 | [8] -0.033 | [9] 0.019

SUZ12 (UniProt Q15022)
inactive: [2] -0.025 | [5] -0.069 | [10] -0.093 | [7] 0.032

TADA1 (UniProt Q96BN2)
inactive: [1] 0.147 | [4] -0.051

TATDN1 isoform 2 (UniProt Q6P1N9)
inactive: [1] 0.278 | [4] -0.165 | [10] -0.046

TACC3 (UniProt C9JWI7)
inactive: [10] -0.219

TAF11 (UniProt Q15544)
inactive: [1] -0.002 | [2] -0.086 | [4] 0.002 | [5] -0.059 | [6] -0.044 | [10] -0.087 | [7] 0.013 | [8] 0.029 | [9] 0.031

SYS1 (UniProt Q8N2H4)
inactive: [1] 0.182 | [4] -0.103 | [10] 0.005

SUPT3H isoform 4 (UniProt O75486)
inactive: [10] -0.024

STK40 isoform 4 (UniProt Q8N2I9)
inactive: [2] 0.192 | [5] -0.118 | [7] -0.317

Retrieved one by one from above (3):
TACC3 (UniProt C9JWI7)
inactive: [10] -0.219

TAF11 (UniProt Q15544)
inactive: [1] -0.002 | [2] -0.086 | [4] 0.002 | [5] -0.059 | [6] -0.044 | [10] -0.087 | [7] 0.013 | [8] 0.029 | [9] 0.031

SYS1 (UniProt Q8N2H4)
inactive: [1] 0.182 | [4] -0.103 | [10] 0.005

Later entries.

STOML1 (UniProt Q9UBI4)
inactive: [10] 0.175 | [8] 0.052 | [9] -0.105

SUGT1 isoform 2 (UniProt Q9Y2Z0)
inactive: [1] -0.008 | [4] 0.042 | [6] 0.005 | [10] -0.112 | [8] -0.054 | [9] 0.007

STS (UniProt P08842)
inactive: [2] 0.12 | [5] -0.003 | [6] 0.265 | [7] 0.007

STXBP4 (UniProt Q6ZWJ1)
inactive: [3] -0.345

SVBP (UniProt Q8N300)
inactive: [2] -0.058 | [3] 0.039 | [5] 0.02 | [6] -0.068 | [10] -0.052 | [7] 0.017 | [8] -0.038 | [9] 0.012

SUPT7L (UniProt O94864)
inactive: [1] 0.204 | [4] -0.029 | [6] 0.2 | [10] -0.008

TAF5 (UniProt Q15542)
inactive: [1] -0.019 | [3] 0 | [4] -0.027 | [10] -0.105

TAZ (UniProt Q16635)
inactive: [10] 0.06

STON2 isoform 3 (UniProt Q8WXE9)
inactive: [10] -0.002 | [8] 0.102 | [9] 0.017

TAGLN (UniProt Q01995)
inactive: [1] 0.125 | [4] -0.008 | [6] -0.122

SUFU (UniProt Q9UMX1)
inactive: [1] 0.113 | [2] 0.194 | [4] -0.138 | [5] -0.093 | [6] -0.041 | [7] 0.162

STK35 (UniProt Q8TDR2)
inactive: [2] -0.166 | [5] 0.231 | [10] 0.073 | [7] 0.083

TAGLN3 (UniProt Q9UI15)
inactive: [2] -0.189 | [3] 0.054 | [5] 0.078 | [6] 0.156 | [7] 0.042 | [8] 0.218 | [9] 0.058

TAOK2 (UniProt Q9UL54)
inactive: [1] -0.043 | [3] -0.019 | [4] 0.156 | [10] 0.029 | [8] -0.014 | [9] 0.029

SYNE2 isoform 2 (UniProt Q8WXH0)
active: [2] -0.672
inactive: [1] 0.405 | [4] -0.301 | [5] 0.084 | [6] -0.027 | [10] -0.007 | [7] 0.001 | [8] -0.045 | [9] 0.029

STXBP5L (UniProt Q9Y2K9)
inactive: [1] -0.027 | [4] 0.007

TAF9B (UniProt Q9HBM6)
inactive: [1] 0.008 | [3] -0.087 | [4] -0.097 | [6] 0.153 | [8] 0.041 | [9] 0.131

TASP1 (UniProt Q9H6P5)
inactive: [1] 0.315 | [3] -0.622 | [4] -0.001

TBC1D10A (UniProt Q9BXI6)
inactive: [3] -0.081 | [6] 0.177 | [10] -0.038 | [8] -0.003 | [9] -0.056

TAF2 (UniProt Q6P1X5)
inactive: [2] -0.05 | [3] -0.189 | [5] -0.114 | [6] -0.175 | [10] -0.066 | [7] 0.017 | [8] 0.141 | [9] -0.523

SULT1E1 (UniProt P49888)
inactive: [1] -0.191 | [4] 0.095 | [6] 0.003

SUMO2 (UniProt P61956)
inactive: [1] 0.026 | [2] -0.114 | [4] 0.091 | [5] -0.228 | [6] 0.126 | [10] -0.128 | [7] -0.127 | [8] 0.047 | [9] 0.189

TAB2 (UniProt Q9NYJ8)
inactive: [3] -0.182 | [10] -0.014 | [8] -0.159 | [9] -0.315

SUSD1 isoform 2 (UniProt Q6UWL2)
inactive: [1] -0.013 | [2] -0.053 | [4] 0 | [5] 0.073 | [6] 0.001 | [7] -0.036

TASOR (UniProt Q9UK61)
inactive: [10] -0.04

SYNGR1 isoform 3 (UniProt O43759)
inactive: [8] -0.102 | [9] 0.139

TAF6L (UniProt Q9Y6J9)
inactive: [1] 0.042 | [2] 0.08 | [4] -0.132 | [5] 0.009 | [10] -0.051 | [7] 0.088 | [8] -0.069 | [9] -0.197

SUGP2 (UniProt Q8IX01)
inactive: [3] -0.667

TAF12 (UniProt Q16514)
inactive: [1] 0.041 | [4] 0.007 | [6] 0.014 | [8] -0.01 | [9] -0.044
